According to publication PMC509302:
No constants are given. Whether binding was seen depends on the method and setting. In cells and extracts the contact can be indirect.

Amino acid sequences for entries named in this document (tags omitted).
UniProt Q13315: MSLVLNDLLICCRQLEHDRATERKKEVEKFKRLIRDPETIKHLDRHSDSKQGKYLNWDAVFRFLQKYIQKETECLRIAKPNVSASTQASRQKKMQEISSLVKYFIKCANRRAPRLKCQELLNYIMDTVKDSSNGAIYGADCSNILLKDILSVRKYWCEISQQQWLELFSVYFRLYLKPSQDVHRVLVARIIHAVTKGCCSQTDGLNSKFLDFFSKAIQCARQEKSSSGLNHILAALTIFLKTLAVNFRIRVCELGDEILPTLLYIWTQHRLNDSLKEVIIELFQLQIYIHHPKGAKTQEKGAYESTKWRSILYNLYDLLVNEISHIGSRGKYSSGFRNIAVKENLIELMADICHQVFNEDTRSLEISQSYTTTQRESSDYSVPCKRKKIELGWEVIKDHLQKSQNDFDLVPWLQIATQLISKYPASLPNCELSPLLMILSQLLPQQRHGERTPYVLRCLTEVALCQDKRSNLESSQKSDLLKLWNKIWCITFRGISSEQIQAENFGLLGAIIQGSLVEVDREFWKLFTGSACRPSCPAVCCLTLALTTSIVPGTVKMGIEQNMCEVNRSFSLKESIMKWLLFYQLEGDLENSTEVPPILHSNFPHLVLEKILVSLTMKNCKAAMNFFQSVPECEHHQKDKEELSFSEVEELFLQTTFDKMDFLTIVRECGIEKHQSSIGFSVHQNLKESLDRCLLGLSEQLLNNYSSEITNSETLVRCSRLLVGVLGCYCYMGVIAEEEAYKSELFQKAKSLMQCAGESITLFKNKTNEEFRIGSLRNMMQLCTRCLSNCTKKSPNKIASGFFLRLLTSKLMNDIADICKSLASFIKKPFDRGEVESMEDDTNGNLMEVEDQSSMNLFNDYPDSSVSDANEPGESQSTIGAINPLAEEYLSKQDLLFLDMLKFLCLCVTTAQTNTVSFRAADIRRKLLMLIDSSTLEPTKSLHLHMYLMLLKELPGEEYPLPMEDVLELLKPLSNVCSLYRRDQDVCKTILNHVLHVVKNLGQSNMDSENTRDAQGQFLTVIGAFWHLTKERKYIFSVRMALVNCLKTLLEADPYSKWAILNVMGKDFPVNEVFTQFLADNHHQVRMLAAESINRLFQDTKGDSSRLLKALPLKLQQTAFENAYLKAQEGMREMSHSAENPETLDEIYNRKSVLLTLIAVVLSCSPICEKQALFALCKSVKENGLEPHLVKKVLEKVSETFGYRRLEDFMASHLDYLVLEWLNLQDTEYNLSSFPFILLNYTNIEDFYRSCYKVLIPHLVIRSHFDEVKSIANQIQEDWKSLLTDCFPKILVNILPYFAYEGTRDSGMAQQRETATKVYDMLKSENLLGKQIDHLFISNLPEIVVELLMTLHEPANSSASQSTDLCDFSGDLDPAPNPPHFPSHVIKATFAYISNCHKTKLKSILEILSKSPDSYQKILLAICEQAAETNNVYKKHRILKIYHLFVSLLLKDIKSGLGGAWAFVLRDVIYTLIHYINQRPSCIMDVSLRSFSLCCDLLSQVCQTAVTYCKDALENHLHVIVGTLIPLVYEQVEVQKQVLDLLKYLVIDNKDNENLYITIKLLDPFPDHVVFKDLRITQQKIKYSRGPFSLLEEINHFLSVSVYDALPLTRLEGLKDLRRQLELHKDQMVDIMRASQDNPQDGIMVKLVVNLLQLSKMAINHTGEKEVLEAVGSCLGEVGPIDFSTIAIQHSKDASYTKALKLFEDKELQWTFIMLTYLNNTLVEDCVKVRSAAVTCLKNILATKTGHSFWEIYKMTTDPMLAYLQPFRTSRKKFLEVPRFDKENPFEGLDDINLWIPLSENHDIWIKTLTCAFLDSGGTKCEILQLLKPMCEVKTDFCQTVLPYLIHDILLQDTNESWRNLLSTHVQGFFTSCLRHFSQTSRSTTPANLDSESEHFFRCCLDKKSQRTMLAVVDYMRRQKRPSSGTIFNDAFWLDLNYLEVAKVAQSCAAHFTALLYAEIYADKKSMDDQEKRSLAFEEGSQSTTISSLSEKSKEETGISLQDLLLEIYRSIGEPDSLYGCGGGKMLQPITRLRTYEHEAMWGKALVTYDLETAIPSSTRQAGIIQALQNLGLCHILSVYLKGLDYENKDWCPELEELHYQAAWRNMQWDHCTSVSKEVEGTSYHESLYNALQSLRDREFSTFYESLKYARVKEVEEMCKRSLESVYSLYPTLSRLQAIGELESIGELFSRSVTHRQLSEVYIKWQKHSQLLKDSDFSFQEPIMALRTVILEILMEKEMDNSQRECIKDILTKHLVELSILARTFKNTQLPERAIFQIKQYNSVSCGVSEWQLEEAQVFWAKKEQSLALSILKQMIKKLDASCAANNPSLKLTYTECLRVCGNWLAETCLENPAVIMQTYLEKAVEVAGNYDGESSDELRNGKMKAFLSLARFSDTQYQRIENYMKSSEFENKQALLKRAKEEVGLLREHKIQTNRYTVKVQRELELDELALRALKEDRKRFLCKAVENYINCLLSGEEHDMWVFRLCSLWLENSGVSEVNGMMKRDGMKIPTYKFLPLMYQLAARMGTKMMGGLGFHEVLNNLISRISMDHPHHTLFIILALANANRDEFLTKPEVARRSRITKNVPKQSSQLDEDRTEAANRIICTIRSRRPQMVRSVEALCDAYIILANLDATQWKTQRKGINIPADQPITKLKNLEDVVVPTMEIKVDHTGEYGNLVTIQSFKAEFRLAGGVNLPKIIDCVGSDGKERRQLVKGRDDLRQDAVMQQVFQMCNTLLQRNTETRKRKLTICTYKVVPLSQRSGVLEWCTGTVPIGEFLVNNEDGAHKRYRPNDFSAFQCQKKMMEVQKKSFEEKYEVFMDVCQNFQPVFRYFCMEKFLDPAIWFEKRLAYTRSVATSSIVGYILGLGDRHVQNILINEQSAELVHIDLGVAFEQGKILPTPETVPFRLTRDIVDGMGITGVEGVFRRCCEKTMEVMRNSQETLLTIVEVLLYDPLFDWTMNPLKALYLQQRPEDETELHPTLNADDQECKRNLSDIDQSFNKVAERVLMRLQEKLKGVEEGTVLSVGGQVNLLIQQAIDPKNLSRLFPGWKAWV

Biological target: ATM kinase (human (endogenous in IMR90)) (UniProt Q13315)
Test: co-IP; extracts (0.42 M KCl, diluted to 150 mM KCl) of retrovirally infected cells; IP with anti-ATM (AB3) or anti-Cyclin D1 antibody and protein G-Sepharose, 4 °C; TRF2 or Nova1 detected in the pellets by immunoblotting

B1: Nova1 (protein, UniProt P51513 1-507)
chain: MMAAAPIQQNGTHTGVPIDLDPPDSRKRPLEAPPEAGSTKRTNTGEDGQYFLKVLIPSYAAGSIIGKGGQTIVQLQKETGATIKLSKSKDFYPGTTERVCLIQGTVEALNAVHGFIAEKIREMPQNVAKTEPVSILQPQTTVNPDRIKQTLPSSPTTTKSSPSDPMTTSRANQVKIIVPNSTAGLIIGKGGATVKAVMEQSGAWVQLSQKPDGINLQERVVTVSGEPEQNRKAVELIIQKIQEDPQSGSCLNISYANVTGPVANSNPTGSPYANTAEVLPTAAAAAGLLGHANLAGVAAFPAVLSGFTGNDLVAITSALNTLASYGYNLNTLGLGLSQAAATGALAAAAASANPAAAAANLLATYASEASASGSTAGGTAGTFALGSLAAATAATNGYFGAASPLAASAILGTEKSTDGSKDVVEIAVPENLVGAILGKGGKTLVEYQELTGARIQISKKGEFVPGTRNRKVTITGTPAATQAAQYLITQRITYEQGVRAANPQKVG
For B1, the binding was “no binding”.
